Assay results from PubChem BioAssay AID292 (DTP/NCI, 2004).
The list does not hold the whole screen: it is rich in T/C values a quarter to a half above the control, in often repeated tests (any T/C) and in doses without a T/C. Further doses and runs are listed elsewhere. T/C: endpoint of the treated group in % of that of the vehicle group. Some entries give survivors of the animals treated and no T/C: the source holds a T/C of zero for them, seemingly a mark for toxic or unscored doses. Some survivor counts are full or nearly so, which does not show that the dose was tolerated: the source hardly ever lists a survival T/C far under the control, and the zero likely stands for such cases as well. Counts of survivors are from the toxicity check (mostly the fifth day) where no day follows; animals may have died later. Schedules are NCI's codes, taken here to give the interval after Q, in days (D) or hours (H), and the number of doses after X. Some doses were run more than once; the results are listed from low to high. For survival time, the PubChem record calls one and a half times the control and up active, and a quarter to a half above the control has no call in these data; cut-offs in other NCI protocols can differ. Some T/C values carry the count of animals alive at the toxicity check (mostly the fifth day); where none is given, no animal had died by that day. Brackets with × stand for listed records that agree.

Tested on: B6C3F1 mice, ip Sarcoma M5076, median survival T/C
Test: NCI In Vivo Anticancer Drug Screen. Data for tumor model Sarcoma M5076 (intraperitoneal) in B6C3F1 mice
Settings: T/C endpoint: median survival time, higher T/C = longer survival
In short: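 Antitumour effect is judged in tumour-bearing mice by comparing survival after compound dosing against vehicle-only animals, reported as T/C.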

[1] = dose: 60.0 mg/kg/injection, schedule: Q04DX004 (ip), vehicle: saline
[2] = dose: 120.0 mg/kg/injection, schedule: Q01DX001 (ip), vehicle: saline
[3] = dose: 120.0 mg/kg/injection, schedule: Q04DX004 (ip), vehicle: saline
[4] = dose: 160.0 mg/kg/injection, schedule: Q04DX005 (ip), vehicle: saline
[5] = dose: 240.0 mg/kg/injection, schedule: Q01DX001 (ip), vehicle: saline
[6] = dose: 200.0 mg/kg/injection, schedule: Q04DX004 (ip), vehicle: saline with Tween-80
[7] = dose: 400.0 mg/kg/injection, schedule: Q04DX004 (ip), vehicle: saline with Tween-80
[8] = dose: 400.0 mg/kg/injection, schedule: Q04DX004 (ip), vehicle: Klucel (hydroxypropylcellulose) (HPC)
[9] = dose: 800.0 mg/kg/injection, schedule: Q04DX004 (ip), vehicle: Klucel (hydroxypropylcellulose) (HPC)

## O=P1(N(CCCl)CCCl)NCCCO1 (stereo not drawn)
dose: 15.0 mg/kg/injection, schedule: Q04DX004 (ip), vehicle: saline
  T/C: 99, 100, 104, 108, 110 (2×), 111, 112, 115, 118, 121 % of control
dose: 20.0 mg/kg/injection, schedule: Q04DX004 (ip), vehicle: saline
  T/C: 100, 105, 115, 117, 118 % of control
dose: 20.0 mg/kg/injection, schedule: Q04DX005 (ip), vehicle: saline
  T/C: 101, 110 [9 of 10 alive on day 9], 122 (2×), 131 % of control
dose: 30.0 mg/kg/injection, schedule: Q01DX001 (ip), vehicle: saline
  T/C: 98, 100, 101, 107, 110 (2×), 112, 114, 115, 124 % of control
dose: 30.0 mg/kg/injection, schedule: Q04DX004 (ip), vehicle: saline
  T/C: 113, 114 [9 of 10 alive on day 14], 115, 116, 118, 119, 125 (2×), 127 [8 of 10 alive on day 14], 138, 141 % of control
dose: 40.0 mg/kg/injection, schedule: Q04DX003 (ip), vehicle: saline
  T/C: 147 % of control
dose: 40.0 mg/kg/injection, schedule: Q04DX004 (ip), vehicle: saline, evaluated on day 29
  T/C: 138 % of control
dose: 40.0 mg/kg/injection, schedule: Q04DX004 (ip), vehicle: saline, evaluated on day 36
  T/C: 180 % of control
dose: 40.0 mg/kg/injection, schedule: Q04DX004 (ip), vehicle: saline, evaluated on day 37
  T/C: 138 % of control
dose: 40.0 mg/kg/injection, schedule: Q04DX004 (ip), vehicle: saline, evaluated on day 40
  T/C: 194 % of control
dose: 40.0 mg/kg/injection, schedule: Q04DX004 (ip), vehicle: saline, evaluated on day 43
  T/C: 185 and 199 % of control
dose: 40.0 mg/kg/injection, schedule: Q04DX004 (ip), vehicle: saline, evaluated on day 49
  T/C: 188 % of control
dose: 40.0 mg/kg/injection, schedule: Q04DX004 (ip), vehicle: saline, evaluated on day 60
  T/C: 116, 127, 132, 135, 136, 138, 143, 146, 149 (2×), 150 (2×), 152 (2×), 153, 156, 157, 158, 160 (2×), 163, 165 (2×), 167, 168, 169 (2×), 170, 172 (2×), 174 (3×), 175 (3×), 177 (2×), 178, 181, 182, 188, 192, 193 (2×), 195, 198, 200, 201, 212, 213, 214, 216, 220, 222, 266 % of control
dose: 40.0 mg/kg/injection, schedule: Q04DX004 (ip), vehicle: saline, evaluated on day 69
  T/C: 128 % of control
dose: 40.0 mg/kg/injection, schedule: Q04DX004 (ip), vehicle: saline, evaluated on day 75
  T/C: 101 [9 of 10 alive], 129, 140, 156, 161 % of control
dose: 40.0 mg/kg/injection, schedule: Q04DX005 (ip), vehicle: saline
  T/C: 115, 122, 146, 158, 173 % of control
dose: 60.0 mg/kg/injection, schedule: Q01DX001 (ip), vehicle: saline
  T/C: 107, 115, 118 (2×), 124, 128, 129, 130, 132, 133 % of control [9 of 10 alive on day 14]
[1]
  T/C: 145, 161, 163 (2×), 165, 170, 173, 175, 177, 180, 206, 207 (2×), 212 % of control
  survivor count: 5 of 10 on day 14
dose: 80.0 mg/kg/injection, schedule: Q04DX004 (ip), vehicle: saline, evaluated on day 29
  T/C: 138 % of control [9 of 10 alive on day 14]
dose: 80.0 mg/kg/injection, schedule: Q04DX004 (ip), vehicle: saline, evaluated on day 36
  T/C: 180 % of control
dose: 80.0 mg/kg/injection, schedule: Q04DX004 (ip), vehicle: saline, evaluated on day 37
  T/C: 160 % of control
dose: 80.0 mg/kg/injection, schedule: Q04DX004 (ip), vehicle: saline, evaluated on day 40
  T/C: 194 % of control
dose: 80.0 mg/kg/injection, schedule: Q04DX004 (ip), vehicle: saline, evaluated on day 43
  T/C: 199 and 207 % of control
dose: 80.0 mg/kg/injection, schedule: Q04DX004 (ip), vehicle: saline, evaluated on day 49
  T/C: 234 % of control
dose: 80.0 mg/kg/injection, schedule: Q04DX004 (ip), vehicle: saline, evaluated on day 60
  T/C: 126, 133, 165, 166, 179, 189, 190, 192, 198, 200, 201, 204, 205, 207 (2×), 209, 213, 214 [9 of 10 alive on day 14], 216, 219 (2×), 220 [7 of 10 alive on day 14], 223, 224, 226, 228, 231, 232 (2×), 233, 234 (3×), 235 (3×), 236, 238, 239 (2×), 241 (2×), 242 (2×), 244, 245 (2×), 246 (2×), 251, 252, 252 [9 of 10 alive on day 14], 263, 266, 277, 281, 286, 291 % of control
dose: 80.0 mg/kg/injection, schedule: Q04DX004 (ip), vehicle: saline, evaluated on day 75
  T/C: 143, 183, 186, 225, 231 [9 of 10 alive on day 14], 235 % of control
dose: 80.0 mg/kg/injection, schedule: Q04DX004 (ip), vehicle: saline
  survivor count: 6 of 10 on day 14
dose: 80.0 mg/kg/injection, schedule: Q04DX005 (ip), vehicle: saline
  T/C: 152, 198, 206, 252, 276 % of control
[2]
  T/C: 134, 137, 153, 158, 159 (2×), 163, 167, 177 % of control
  survivor count: 6 of 10 on day 14
[3]
  T/C: 107 [9 of 10 alive on day 14], 143, 144 [9 of 10 alive on day 14], 199, 221, 223, 229, 241, 250, 263, 265, 269, 275, 276 % of control
  survivor count: 6 of 10 on day 14
dose: 160.0 mg/kg/injection, schedule: Q04DX004 (ip), vehicle: saline, evaluated on day 29
  T/C: 138 % of control
dose: 160.0 mg/kg/injection, schedule: Q04DX004 (ip), vehicle: saline, evaluated on day 36
  T/C: 180 % of control
dose: 160.0 mg/kg/injection, schedule: Q04DX004 (ip), vehicle: saline, evaluated on day 37
  T/C: 160 % of control
dose: 160.0 mg/kg/injection, schedule: Q04DX004 (ip), vehicle: saline, evaluated on day 40
  T/C: 194 % of control
dose: 160.0 mg/kg/injection, schedule: Q04DX004 (ip), vehicle: saline, evaluated on day 43
  T/C: 199 and 207 % of control
dose: 160.0 mg/kg/injection, schedule: Q04DX004 (ip), vehicle: saline, evaluated on day 49
  T/C: 234 % of control
dose: 160.0 mg/kg/injection, schedule: Q04DX004 (ip), vehicle: saline, evaluated on day 60
  T/C: 86, 93, 95, 112 [8 of 10 alive on day 14], 115, 141, 159, 219 [9 of 10 alive on day 14], 220, 224, 227 [9 of 10 alive on day 14], 228, 230, 230 [9 of 10 alive on day 14], 232, 232 [8 of 10 alive on day 14], 241, 242, 244, 245, 246, 246 [9 of 10 alive on day 14], 247 (2×), 248, 249, 250, 253 (3×), 254, 260, 262, 267, 268, 269 (2×), 270, 270 [9 of 10 alive on day 14], 272, 275 (2×), 275 [9 of 10 alive on day 14], 276 (2×), 277 (3×), 280, 285, 287 (2×), 291 (2×), 292, 304 % of control
dose: 160.0 mg/kg/injection, schedule: Q04DX004 (ip), vehicle: saline, evaluated on day 75
  T/C: 178, 215, 222, 273, 284, 285 % of control
dose: 160.0 mg/kg/injection, schedule: Q04DX004 (ip), vehicle: saline
  survivor count: 6 of 10 on day 14 and 8 of 10 on day 14
[4]
  T/C: 215 (2×), 292, 319 % of control
  survivor count: 10 of 10 on day 9
[5]
  T/C: 160, 176, 181, 190, 195, 198, 211 [9 of 10 alive on day 14], 229, 230 % of control
  survivor count: 4 of 10 on day 14

## Nc1ccc2c(c1)CN1C(=O)c3ccccc3C1=N2
[6]
  survivor count: 6 of 10 on day 14
[7]
  survivor count: 0 of 10 on day 14

## Cc1cccc(OCC(O)CN2CC2)c1 (stereo not drawn)
[6]
  survivor count: 4 of 10 on day 14
[7]
  survivor count: 0 of 10 on day 14

## COC1C(CO)OC(n2cnc3c(=S)nc(N)[nH]c32)C1O (stereo not drawn)
[8]
  survivor count: 3 of 10 on day 9
[9]
  survivor count: 2 of 10 on day 9

## O=C(Nc1ccc(Cl)c(Cl)c1)C1C(=O)C(=O)N(c2ccc(Cl)c(Cl)c2)C1=O (stereo not drawn)
[8]
  survivor count: 9 of 10 on day 14
[9]
  survivor count: 6 of 10 on day 14

## C/C=C/C=C\C=C/C(O)CC(OP(=O)(O)O)C(C)(O)/C=C/C1CC=CC(=O)O1 (stereo not drawn)
dose: 12.0 mg/kg/injection, schedule: Q04DX004 (ip), vehicle: Klucel (hydroxypropylcellulose) (HPC)
  T/C: 126 % of control
dose: 12.0 mg/kg/injection, schedule: Q04DX004 (ip), vehicle: water
  T/C: 127 % of control
dose: 24.0 mg/kg/injection, schedule: Q04DX004 (ip), vehicle: water
  T/C: 131 % of control [9 of 10 alive on day 14]
dose: 48.0 mg/kg/injection, schedule: Q04DX004 (ip), vehicle: water
  survivor count: 6 of 10 on day 14
